These results are taken from the supplement of paper PMC10849652.

Amino acid sequences for entries named in this document (tags omitted). A change or cut given only in a name is not applied to a line headed by its entry.
UniProt O14867: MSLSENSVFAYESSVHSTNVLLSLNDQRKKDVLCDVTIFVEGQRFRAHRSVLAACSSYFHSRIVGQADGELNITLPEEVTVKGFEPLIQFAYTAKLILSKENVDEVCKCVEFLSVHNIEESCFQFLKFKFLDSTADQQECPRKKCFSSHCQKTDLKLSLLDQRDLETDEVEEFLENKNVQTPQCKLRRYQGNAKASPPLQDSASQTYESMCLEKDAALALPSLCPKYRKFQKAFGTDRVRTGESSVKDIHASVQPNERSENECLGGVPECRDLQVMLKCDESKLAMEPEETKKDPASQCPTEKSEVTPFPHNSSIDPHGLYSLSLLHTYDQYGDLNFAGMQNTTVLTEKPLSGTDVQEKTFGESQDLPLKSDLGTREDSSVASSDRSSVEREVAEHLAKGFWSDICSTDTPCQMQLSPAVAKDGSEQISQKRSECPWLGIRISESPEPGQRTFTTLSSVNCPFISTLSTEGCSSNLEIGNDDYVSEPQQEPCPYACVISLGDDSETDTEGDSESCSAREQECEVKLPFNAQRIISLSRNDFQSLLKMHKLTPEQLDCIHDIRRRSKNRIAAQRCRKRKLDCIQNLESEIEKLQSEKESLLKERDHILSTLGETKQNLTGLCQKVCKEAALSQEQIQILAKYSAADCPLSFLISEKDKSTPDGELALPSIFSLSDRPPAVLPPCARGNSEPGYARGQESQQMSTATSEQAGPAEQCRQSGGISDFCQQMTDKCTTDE
UniProt O95861: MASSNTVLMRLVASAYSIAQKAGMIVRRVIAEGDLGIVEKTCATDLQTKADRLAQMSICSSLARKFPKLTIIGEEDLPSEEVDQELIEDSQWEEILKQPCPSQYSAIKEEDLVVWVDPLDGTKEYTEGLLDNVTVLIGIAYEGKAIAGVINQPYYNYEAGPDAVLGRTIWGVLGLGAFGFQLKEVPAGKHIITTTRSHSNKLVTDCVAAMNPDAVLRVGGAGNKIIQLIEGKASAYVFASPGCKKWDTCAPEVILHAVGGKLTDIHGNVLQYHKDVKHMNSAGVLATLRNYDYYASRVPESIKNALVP
UniProt Q96KE9: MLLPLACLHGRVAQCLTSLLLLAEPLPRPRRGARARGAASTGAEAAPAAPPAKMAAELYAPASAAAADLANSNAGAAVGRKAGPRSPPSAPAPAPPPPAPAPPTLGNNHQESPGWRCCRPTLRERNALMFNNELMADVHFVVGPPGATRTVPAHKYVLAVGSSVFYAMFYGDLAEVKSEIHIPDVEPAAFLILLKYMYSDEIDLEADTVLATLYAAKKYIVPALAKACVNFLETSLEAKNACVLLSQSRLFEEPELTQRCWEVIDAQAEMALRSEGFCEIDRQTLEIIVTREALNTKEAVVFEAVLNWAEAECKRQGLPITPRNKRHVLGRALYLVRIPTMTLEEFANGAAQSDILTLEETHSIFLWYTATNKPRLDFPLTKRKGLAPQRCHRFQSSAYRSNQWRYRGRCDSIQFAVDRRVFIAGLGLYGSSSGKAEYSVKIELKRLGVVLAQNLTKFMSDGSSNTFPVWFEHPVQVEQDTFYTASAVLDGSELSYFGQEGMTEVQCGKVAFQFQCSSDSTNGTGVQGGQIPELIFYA
UniProt Q12981: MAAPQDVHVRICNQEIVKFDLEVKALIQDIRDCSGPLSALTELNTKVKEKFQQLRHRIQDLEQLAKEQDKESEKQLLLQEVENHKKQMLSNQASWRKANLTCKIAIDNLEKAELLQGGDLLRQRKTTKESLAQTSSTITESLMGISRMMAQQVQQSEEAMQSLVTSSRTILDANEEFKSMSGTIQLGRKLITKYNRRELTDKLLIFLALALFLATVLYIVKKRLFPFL
UniProt Q9NW68: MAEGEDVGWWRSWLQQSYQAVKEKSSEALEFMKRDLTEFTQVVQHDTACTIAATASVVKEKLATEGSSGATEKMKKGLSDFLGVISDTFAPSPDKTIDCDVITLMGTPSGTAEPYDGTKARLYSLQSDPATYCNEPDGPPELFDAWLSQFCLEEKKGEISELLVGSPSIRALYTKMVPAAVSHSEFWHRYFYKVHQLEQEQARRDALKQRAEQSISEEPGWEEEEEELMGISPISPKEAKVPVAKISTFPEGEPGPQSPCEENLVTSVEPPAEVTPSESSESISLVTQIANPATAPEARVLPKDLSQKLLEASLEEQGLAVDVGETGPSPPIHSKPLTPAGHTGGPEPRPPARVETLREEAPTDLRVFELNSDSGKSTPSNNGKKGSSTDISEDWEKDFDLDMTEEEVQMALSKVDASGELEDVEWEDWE
UniProt P30043: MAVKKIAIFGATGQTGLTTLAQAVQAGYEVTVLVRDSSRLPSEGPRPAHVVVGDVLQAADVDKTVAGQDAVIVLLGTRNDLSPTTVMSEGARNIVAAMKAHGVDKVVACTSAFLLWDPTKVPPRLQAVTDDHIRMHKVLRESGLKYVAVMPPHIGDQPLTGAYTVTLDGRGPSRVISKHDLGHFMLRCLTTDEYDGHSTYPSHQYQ
UniProt Q92934: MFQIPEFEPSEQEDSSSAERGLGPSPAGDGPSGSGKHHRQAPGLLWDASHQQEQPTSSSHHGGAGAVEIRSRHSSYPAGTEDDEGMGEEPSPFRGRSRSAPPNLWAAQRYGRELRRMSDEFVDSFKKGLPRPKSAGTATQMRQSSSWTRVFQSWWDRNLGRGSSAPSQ
UniProt Q9UHQ4: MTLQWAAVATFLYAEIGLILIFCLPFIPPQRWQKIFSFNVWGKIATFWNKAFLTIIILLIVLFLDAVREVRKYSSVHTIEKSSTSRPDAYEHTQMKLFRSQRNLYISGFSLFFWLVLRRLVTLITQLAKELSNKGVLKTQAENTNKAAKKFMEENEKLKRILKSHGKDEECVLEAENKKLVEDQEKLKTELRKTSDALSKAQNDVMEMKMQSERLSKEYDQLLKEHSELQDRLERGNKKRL
UniProt Q9P287, whole entry, looked up: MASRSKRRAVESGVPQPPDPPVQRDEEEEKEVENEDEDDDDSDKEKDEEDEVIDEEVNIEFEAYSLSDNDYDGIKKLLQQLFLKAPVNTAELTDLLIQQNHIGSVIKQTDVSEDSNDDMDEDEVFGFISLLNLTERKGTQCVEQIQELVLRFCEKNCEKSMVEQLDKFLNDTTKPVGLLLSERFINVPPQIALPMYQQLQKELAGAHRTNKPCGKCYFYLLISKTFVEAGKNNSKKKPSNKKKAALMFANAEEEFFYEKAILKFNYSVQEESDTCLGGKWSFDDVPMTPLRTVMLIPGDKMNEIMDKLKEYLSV
UniProt P11274: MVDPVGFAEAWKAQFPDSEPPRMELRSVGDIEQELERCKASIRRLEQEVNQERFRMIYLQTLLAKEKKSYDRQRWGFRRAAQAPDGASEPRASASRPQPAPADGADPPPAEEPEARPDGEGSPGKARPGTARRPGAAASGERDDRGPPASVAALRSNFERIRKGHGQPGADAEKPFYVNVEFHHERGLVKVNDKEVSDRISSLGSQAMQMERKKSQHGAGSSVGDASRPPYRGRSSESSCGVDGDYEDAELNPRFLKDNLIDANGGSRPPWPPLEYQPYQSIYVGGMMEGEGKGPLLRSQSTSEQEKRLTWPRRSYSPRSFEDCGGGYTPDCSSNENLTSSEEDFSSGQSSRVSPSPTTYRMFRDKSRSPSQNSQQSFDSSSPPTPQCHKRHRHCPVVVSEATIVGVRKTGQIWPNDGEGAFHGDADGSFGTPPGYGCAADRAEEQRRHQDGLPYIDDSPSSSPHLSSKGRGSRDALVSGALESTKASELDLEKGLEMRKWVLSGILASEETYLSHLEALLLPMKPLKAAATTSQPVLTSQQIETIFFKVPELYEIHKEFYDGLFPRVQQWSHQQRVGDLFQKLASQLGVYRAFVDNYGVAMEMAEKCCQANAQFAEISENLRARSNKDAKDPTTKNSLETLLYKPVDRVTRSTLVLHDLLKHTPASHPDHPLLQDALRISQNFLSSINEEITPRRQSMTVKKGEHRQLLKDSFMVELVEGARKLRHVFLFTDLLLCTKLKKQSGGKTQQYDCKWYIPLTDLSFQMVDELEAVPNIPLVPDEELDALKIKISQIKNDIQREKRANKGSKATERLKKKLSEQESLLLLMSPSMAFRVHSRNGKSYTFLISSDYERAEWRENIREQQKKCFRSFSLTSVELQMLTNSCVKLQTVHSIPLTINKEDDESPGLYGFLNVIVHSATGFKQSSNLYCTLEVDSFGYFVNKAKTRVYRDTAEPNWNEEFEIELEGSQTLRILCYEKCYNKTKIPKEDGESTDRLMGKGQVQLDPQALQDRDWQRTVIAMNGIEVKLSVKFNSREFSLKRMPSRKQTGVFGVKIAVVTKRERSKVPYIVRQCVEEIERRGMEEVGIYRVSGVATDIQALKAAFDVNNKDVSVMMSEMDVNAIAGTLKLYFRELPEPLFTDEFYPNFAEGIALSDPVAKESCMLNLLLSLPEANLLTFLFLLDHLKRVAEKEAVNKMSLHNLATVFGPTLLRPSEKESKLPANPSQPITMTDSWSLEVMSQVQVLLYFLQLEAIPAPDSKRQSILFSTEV
UniProt Q6QNY0: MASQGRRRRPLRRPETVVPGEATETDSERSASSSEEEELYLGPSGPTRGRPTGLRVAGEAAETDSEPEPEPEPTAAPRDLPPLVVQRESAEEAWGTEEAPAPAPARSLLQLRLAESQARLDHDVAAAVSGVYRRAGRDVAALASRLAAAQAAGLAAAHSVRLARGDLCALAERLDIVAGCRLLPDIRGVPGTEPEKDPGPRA
UniProt P38398, whole entry, looked up: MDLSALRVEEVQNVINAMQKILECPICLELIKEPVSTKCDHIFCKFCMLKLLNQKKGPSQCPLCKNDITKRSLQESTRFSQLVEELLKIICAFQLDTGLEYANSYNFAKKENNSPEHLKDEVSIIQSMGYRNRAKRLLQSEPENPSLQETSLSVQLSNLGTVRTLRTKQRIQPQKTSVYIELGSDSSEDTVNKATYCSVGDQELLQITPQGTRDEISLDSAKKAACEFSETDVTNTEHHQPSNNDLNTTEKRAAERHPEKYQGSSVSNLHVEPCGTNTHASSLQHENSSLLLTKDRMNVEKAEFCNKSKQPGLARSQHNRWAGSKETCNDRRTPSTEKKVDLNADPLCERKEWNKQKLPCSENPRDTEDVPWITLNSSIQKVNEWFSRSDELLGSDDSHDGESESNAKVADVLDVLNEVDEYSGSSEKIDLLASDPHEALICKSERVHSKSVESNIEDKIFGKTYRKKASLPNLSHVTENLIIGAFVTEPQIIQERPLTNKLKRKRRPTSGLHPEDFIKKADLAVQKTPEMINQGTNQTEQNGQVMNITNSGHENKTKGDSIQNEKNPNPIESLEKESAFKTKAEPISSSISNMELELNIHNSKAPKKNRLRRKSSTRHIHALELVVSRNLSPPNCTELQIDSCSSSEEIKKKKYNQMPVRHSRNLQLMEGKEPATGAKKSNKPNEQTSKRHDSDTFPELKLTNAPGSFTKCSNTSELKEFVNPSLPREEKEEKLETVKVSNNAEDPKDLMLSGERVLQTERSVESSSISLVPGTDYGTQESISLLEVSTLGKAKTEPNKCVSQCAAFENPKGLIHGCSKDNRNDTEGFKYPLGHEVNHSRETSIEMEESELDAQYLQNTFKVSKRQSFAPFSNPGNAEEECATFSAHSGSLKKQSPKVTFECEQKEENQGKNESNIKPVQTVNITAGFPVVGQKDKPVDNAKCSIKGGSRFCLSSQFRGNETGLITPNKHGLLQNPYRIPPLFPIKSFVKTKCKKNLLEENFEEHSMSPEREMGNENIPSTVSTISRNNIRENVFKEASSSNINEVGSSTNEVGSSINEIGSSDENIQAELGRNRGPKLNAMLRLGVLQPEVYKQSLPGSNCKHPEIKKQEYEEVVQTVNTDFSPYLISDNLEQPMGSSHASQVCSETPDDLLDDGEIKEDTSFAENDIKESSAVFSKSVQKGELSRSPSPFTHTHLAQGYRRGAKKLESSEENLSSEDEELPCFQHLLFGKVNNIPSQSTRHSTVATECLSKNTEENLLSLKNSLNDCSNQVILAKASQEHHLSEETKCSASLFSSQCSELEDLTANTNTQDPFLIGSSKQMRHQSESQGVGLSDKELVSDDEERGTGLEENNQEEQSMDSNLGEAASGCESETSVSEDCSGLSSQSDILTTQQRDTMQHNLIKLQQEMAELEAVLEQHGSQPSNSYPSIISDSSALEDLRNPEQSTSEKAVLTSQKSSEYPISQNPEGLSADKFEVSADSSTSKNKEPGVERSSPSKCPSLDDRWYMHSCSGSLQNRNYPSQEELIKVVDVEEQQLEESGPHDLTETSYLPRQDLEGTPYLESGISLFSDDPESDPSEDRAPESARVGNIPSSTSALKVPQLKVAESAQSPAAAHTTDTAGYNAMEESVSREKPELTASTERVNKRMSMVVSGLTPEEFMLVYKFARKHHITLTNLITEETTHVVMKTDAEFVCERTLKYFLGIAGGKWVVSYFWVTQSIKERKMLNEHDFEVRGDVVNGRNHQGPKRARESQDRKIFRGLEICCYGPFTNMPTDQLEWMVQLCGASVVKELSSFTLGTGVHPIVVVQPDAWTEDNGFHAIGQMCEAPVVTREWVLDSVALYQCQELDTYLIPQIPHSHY
UniProt Q8WUW1: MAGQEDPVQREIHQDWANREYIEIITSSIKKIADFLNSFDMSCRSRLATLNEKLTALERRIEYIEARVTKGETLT

This is one part of the list.

Compound in one assay: CNC(=O)C1=CC=CC=C1NC2=NC(=NC=C2Cl)NC3=C(C=C(C=C3)N4CCOCC4)OC
Put plainly: log2 fold change, soluble protein after heating vs DMSO (PISA); higher = thermal stabilisation; K562 lysate, 10 uM; active = over 0.2 and 3.5 SD of the protein, either way, in both replicates (recomputed). A digest of the protocol:
(§1)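 K562 pellets were dounce-homogenised in PBS pH 7.4 with 1 mM MgCl2, and the crude extract at 1 mg/mL protein was treated with 10 μM compound for 30 min. Aliquots were heated for 3 min across 48°C-58°C, pooled, and brought to 0.5% NP-40 at 4°C; soluble protein was the supernatant after 21,000xg for 90 min. Soluble protein was quantified by TMTpro 16plex LC-MS/MS with channel sums equalised, and reported as log2 fold change in thermal stability against DMSO controls, with values from duplicates.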
On to BIRC2 (UniProt Q13490), for which the log2 fold change is inactive: 0.01.
For BTN2A1 (UniProt Q7KYR7), the log2 fold change is inactive: -0.003.
For the target BAIAP2L1 (UniProt Q9UHR4), the log2 fold change was inactive: 0.014.
For BIRC6 (UniProt Q9NR09), the log2 fold change was inactive: 0.013.
Regarding BACH1 (UniProt O14867), the log2 fold change is inactive: 0.012.
As to BPNT1 (UniProt O95861), the log2 fold change is inactive: 0.003.
Still for that read-out and setting: then BTBD6 (UniProt Q96KE9), with inactive: 0.005.
Same read-out and setting: next, BAG3 (UniProt O95817): inactive: 0.003; BRCC3 (UniProt P46736): inactive: 0.02.
Still for that read-out and setting: then BRIX1 (UniProt Q8TDN6), with inactive: 0.008; and BNIP1 (UniProt Q12981), with inactive: 0.055.
For the target BCAS2 (UniProt O75934), the log2 fold change was inactive: -0.028.
Still for that read-out and setting: next, BSDC1 (UniProt Q9NW68): inactive: 0.018; BLVRB (UniProt P30043): inactive: 0.041; BPTF (UniProt Q12830): inactive: 0.049.
For the target BPHL (UniProt Q86WA6), the log2 fold change was inactive: -0.048.
On the same count and under the same terms, next, BCL10 (UniProt O95999): inactive: 0.024; BAD (UniProt Q92934): inactive: 0.05.
Consider BROX (UniProt Q5VW32), for which the log2 fold change was inactive: -0.019.
The same measure, in the same setting: next, BTK isoform 2 (UniProt Q06187): active: 0.307; BCAP29 isoform 2 (UniProt Q9UHQ4): inactive: 0.04.
Consider BCKDK (UniProt O14874), for which the log2 fold change was inactive: -0.005.
As to BCCIP isoform 2 (UniProt Q9P287), the log2 fold change was inactive: 0.002.
Still for that read-out and setting: next, BCR (UniProt P11274): inactive: 0.002; BAG4 (UniProt O95429): inactive: -0.01; BCL9 (UniProt O00512): inactive: -0.046.
In the case of BLOC1S3 (UniProt Q6QNY0), the log2 fold change is inactive: -0.008.
Same read-out and setting: next, BRCA1 isoform 7 (UniProt P38398): inactive: 0; BRIP1 (UniProt Q9BX63): inactive: 0.03.
BAG2 (UniProt O95816): the log2 fold change was inactive: -0.014.
On the same count and under the same terms, then BCORL1 isoform 3 (UniProt Q5H9F3), with inactive: -0.064; and BRK1 isoform 2 (UniProt Q8WUW1), with inactive: 0.044.

Compound in a further assay: CNC(=O)c1ccc(Nc2ncc(C(F)(F)F)c(NCc3nccnc3N(C)S(C)(=O)=O)n2)cc1 [defactinib]
The description is as above. The method, boiled down:
as §1
For BIRC2 (UniProt Q13490), the log2 fold change is inactive: -0.024.
In the case of BTN2A1 (UniProt Q7KYR7), the log2 fold change is inactive: 0.052.
On the same count and under the same terms, next, BAIAP2L1 (UniProt Q9UHR4): inactive: 0.025; BIRC6 (UniProt Q9NR09): inactive: 0.011.
Still for that read-out and setting: then BACH1 (UniProt O14867), with inactive: -0.005; and BPNT1 (UniProt O95861), with inactive: 0.002; and BTBD6 (UniProt Q96KE9), with inactive: 0.
Regarding BAG3 (UniProt O95817), the log2 fold change is inactive: -0.052.
On the same count and under the same terms, next, BRCC3 (UniProt P46736): inactive: -0.023; BRIX1 (UniProt Q8TDN6): inactive: 0.014.
BNIP1 (UniProt Q12981): the log2 fold change was inactive: 0.
Consider BCAS2 (UniProt O75934), for which the log2 fold change was inactive: 0.024.
Take BSDC1 (UniProt Q9NW68): the log2 fold change is inactive: 0.031.
Take BLVRB (UniProt P30043): the log2 fold change was inactive: -0.018.
Still for that read-out and setting: then BPTF (UniProt Q12830), with inactive: 0.018.
For BPHL (UniProt Q86WA6), the log2 fold change is inactive: 0.036.
On the same count and under the same terms, then BCL10 (UniProt O95999), with inactive: -0.041; and BAD (UniProt Q92934), with inactive: 0.099.
Still for that read-out and setting: then BROX (UniProt Q5VW32), with inactive: -0.011; and BTK isoform 2 (UniProt Q06187), with inactive: 0.017.
On the same count and under the same terms, then BCAP29 isoform 2 (UniProt Q9UHQ4), with inactive: -0.05; and BCKDK (UniProt O14874), with inactive: 0.029; and BCCIP isoform 2 (UniProt Q9P287), with inactive: 0.023.
As for BCR (UniProt P11274), the log2 fold change was inactive: -0.008.
On the same count and under the same terms, then BAG4 (UniProt O95429), with inactive: -0.001; and BCL9 (UniProt O00512), with inactive: -0.005; and BLOC1S3 (UniProt Q6QNY0), with inactive: -0.019.
Same read-out and setting: next, BRCA1 isoform 7 (UniProt P38398): inactive: -0.007; BRIP1 (UniProt Q9BX63): inactive: 0.063.
As to BAG2 (UniProt O95816), the log2 fold change is inactive: -0.023.
On the same count and under the same terms, then BCORL1 isoform 3 (UniProt Q5H9F3), with inactive: -0.213; and BRK1 isoform 2 (UniProt Q8WUW1), with inactive: 0.141.

Compound in the next assay: CNc1nc(-c2ccc3c(N)n[nH]c3c2)cc(N2C[C@@H](C(=O)NC3CCCCC3)CC[C@H]2C)n1
The assay is described as above. The method, boiled down: as §1
In the case of BIRC2 (UniProt Q13490), the log2 fold change is inactive: -0.014.
Regarding BTN2A1 (UniProt Q7KYR7), the log2 fold change was inactive: 0.067.
The same measure, in the same setting: next, BAIAP2L1 (UniProt Q9UHR4): inactive: 0.025; BIRC6 (UniProt Q9NR09): inactive: 0.013.
Still for that read-out and setting: next, BACH1 (UniProt O14867): inactive: -0.033; BPNT1 (UniProt O95861): inactive: 0.017.
Consider BTBD6 (UniProt Q96KE9), for which the log2 fold change is inactive: 0.733.
On to BAG3 (UniProt O95817), for which the log2 fold change was inactive: 0.031.
In the case of BRCC3 (UniProt P46736), the log2 fold change was inactive: -0.027.
With BRIX1 (UniProt Q8TDN6), the log2 fold change is inactive: 0.002.
Consider BNIP1 (UniProt Q12981), for which the log2 fold change is inactive: -0.014.
Still for that read-out and setting: then BCAS2 (UniProt O75934), with inactive: 0.039; and BSDC1 (UniProt Q9NW68), with inactive: -0.025.
As to BLVRB (UniProt P30043), the log2 fold change was inactive: -0.021.
BPTF (UniProt Q12830): the log2 fold change was inactive: 0.004.
The same measure, in the same setting: then BPHL (UniProt Q86WA6), with inactive: -0.137; and BCL10 (UniProt O95999), with inactive: -0.009.
Still for that read-out and setting: then BAD (UniProt Q92934), with inactive: -0.161; and BROX (UniProt Q5VW32), with inactive: -0.07.
On the same count and under the same terms, then BTK isoform 2 (UniProt Q06187), with inactive: -0.039; and BCAP29 isoform 2 (UniProt Q9UHQ4), with inactive: 0.053.
As to BCKDK (UniProt O14874), the log2 fold change was inactive: -0.098.
For the target BCCIP isoform 2 (UniProt Q9P287), the log2 fold change is inactive: -0.13.
On to BCR (UniProt P11274), for which the log2 fold change was inactive: -0.005.
The same measure, in the same setting: then BAG4 (UniProt O95429), with inactive: 0.023.
With BLOC1S3 (UniProt Q6QNY0), the log2 fold change was inactive: 0.028.
In the case of BRCA1 isoform 7 (UniProt P38398), the log2 fold change was inactive: 0.025.
With BRIP1 (UniProt Q9BX63), the log2 fold change was inactive: -0.121.
The same measure, in the same setting: then BAG2 (UniProt O95816), with inactive: -0.13.
Regarding BCORL1 isoform 3 (UniProt Q5H9F3), the log2 fold change was inactive: 0.113.
As for BRK1 isoform 2 (UniProt Q8WUW1), the log2 fold change is inactive: -0.007.
